Reference: patent US20240075036A1, “THERAPEUTIC COMBINATIONS INCLUDING INHIBITORS OF THE P2X4 RECEPTOR FOR TREATING AND PREVENTING PROLIFERATIVE DISORDERS” (CHEMOTHERAPEUTISCHES FORSCHUNGSINSTITUT GEORG-SPEYER-HAUS, priority 2021, published 2024)
At least one compound was matched to its structure with a doubt left.

Legend:
[1] = system: Lgr5EGFP-DTR(+) tumor organoids; assay: Tumor organoid survival / cell death upon treatment with or without DT; type: cell-based, mice; conditions: MAPK inhibitor (JNK or p38) in the presence or absence of DT
Excerpt: Representative images are shown from at least three independent experiments. c, Average tumor size was counted on serial hematoxylin and eosin (H&E) stained sections on day 9 after 4 injections of either DT or vehicle. Data are mean±SD, n≥8/treatment. p>0.05 (n.s., not significant) by two-tailed Student's t-test. d, Immunohistochemical analysis and quantification of Lgr5-EGFP expression in GFP-stained colon tumor from Lgr5EGFP-DTR(+) mice on day 9 treated with DT as indicated in a). Representative images are shown (n≥8/treatment, scale bar=300 μm). […] Representative images are shown from four independent experiments (n=4/treatment, scale bar=200 μm). Data represent mean±SD, n=4/treatment. p>0.05 (n.s., not significant) by two-tailed Student's t-test. f, Flow cytometric analysis of Lgr5-EGFP+tumor cells from Lgr5EGFP-DTR(+) tumor organoids 24 h after DT treatment. Representative results are shown (n≥3). g, AOM/DSS colon tumor organoids from Lgr5EGFP-DTR(−) and Lgr5EGFP-DTR(+) mice were treated with DT (20 ng/ml) for 24 h. Representative images are shown from two independent experiments (scale bar=200 μm). h, Immunoblot analysis of Lgr5EGFP-DTR(+) and Lgr5EGFP-DTR(−) tumor organoids treated with DT for 24 h. […] 1, Control and raptor knockdown Lgr5EGFP-DTR(+) tumor organoids were passaged and counted after 72 h. […]

[2] = system: Lgr5EGFP-DTR(+) tumor organoids; assay: Organoid reseeding capacity after treatment; type: cell-based, mice
[3] = system: S6 ribosomal protein phosphorylation, DNA damage and apoptosis markers
[4] = system: AOM/DSSATKN tumor organoids; conditions: rapamycin (10 μM) in combination with 5-FU (20 μM), 48 hours, re-seeded 72 h
[5] = system: CRC cell lines; conditions: rapamycin sensitive cell lines; other cell lines resistant; cited from earlier work
[6] = system: CT-26 colorectal adenocarcinoma cells; conditions: rapamycin combined with 5-fluorouracil; cited from earlier work

| Structure (SMILES) | tumor organoid survival [1] | capacity to form organoids after re-seeding ([2]; DT/rapamycin co-treatment 24 h, re-seeded, 72 h) | reduced capacity to form organoids after re-seeding ([2]; compound applied individually) | DNA damage (p-γH2AX, Western blot) ([3]; DT/rapamycin treatment, colon tumor organoids) | apoptosis (cleaved caspase 3 and cleaved PARP, Western blot) ([3]; Lgr5+ ablation (DT) combined with mTOR inhibition (rapamycin), colon tumor organoids) | S6 ribosomal protein phosphorylation induced by depletion of Lgr5+ cells ([3]; rapamycin (10 μM) with DT (20 ng/ml), 24 hours) | reseeding capacity of tumor organoids [4] | proliferation of CRC cell lines [5] | combination effect on tumor inhibition [6] | tumor size [6] |
| --- | --- | --- | --- | --- | --- | --- | --- | --- | --- | --- |
| Oc1c2ccccc2c2c3c(cccc13)N=N2 [SP600125] | did not affect tumor organoid survival |  |  |  |  |  |  |  |  |  |
| CO[C@H]1C[C@@H]2CC[C@@H](C)[C@@](O)(O2)C(=O)C(=O)N2CCCC[C@H]2C(=O)O[C@H]([C@H](C)C[C@@H]2CC[C@@H](O)[C@H](OC)C2)CC(=O)[C@H](C)/C=C(\C)[C@@H](O)[C@@H](OC)C(=O)[C@H](C)C[C@H](C)/C=C/C=C/C=C/1C [rapamycin] |  | markedly reduced capacity to form organoids | not observed when either compound was applied individually | increased DNA damage | increased apoptosis | prevented | significantly suppressed reseeding capacity | significantly decreased proliferation of certain CRC cell lines | synergistic tumor-inhibition effect | significantly reduced tumor size |
